Experimental data reported in PubChem BioAssay AID651605 (National Center for Advancing Translational Sciences (NCATS), 2012).
Where “and” joins values, the source holds several entries; their conditions need not be identical. Equal entries are not always repeated. Inconclusive results, whose numbers are uncertain, are shown with a selection of clear calls. Potencies of inconclusive entries are doubtful fits and often do not repeat. Calls of active or inactive are those of the source. The call rests on the fitted dose curve; in most records, active means well fitted inhibition curve with a large enough effect; inconclusive means small, poorly fitted or top-dose-only effect; inactive means flat fitted curve, though single readings scatter.

Protein sequences, listed by entry. Tags and fused reporters are not part of them. Lines headed by an entry give the natural chain unless they say otherwise; changes in a name come on top.
UniProt O94782: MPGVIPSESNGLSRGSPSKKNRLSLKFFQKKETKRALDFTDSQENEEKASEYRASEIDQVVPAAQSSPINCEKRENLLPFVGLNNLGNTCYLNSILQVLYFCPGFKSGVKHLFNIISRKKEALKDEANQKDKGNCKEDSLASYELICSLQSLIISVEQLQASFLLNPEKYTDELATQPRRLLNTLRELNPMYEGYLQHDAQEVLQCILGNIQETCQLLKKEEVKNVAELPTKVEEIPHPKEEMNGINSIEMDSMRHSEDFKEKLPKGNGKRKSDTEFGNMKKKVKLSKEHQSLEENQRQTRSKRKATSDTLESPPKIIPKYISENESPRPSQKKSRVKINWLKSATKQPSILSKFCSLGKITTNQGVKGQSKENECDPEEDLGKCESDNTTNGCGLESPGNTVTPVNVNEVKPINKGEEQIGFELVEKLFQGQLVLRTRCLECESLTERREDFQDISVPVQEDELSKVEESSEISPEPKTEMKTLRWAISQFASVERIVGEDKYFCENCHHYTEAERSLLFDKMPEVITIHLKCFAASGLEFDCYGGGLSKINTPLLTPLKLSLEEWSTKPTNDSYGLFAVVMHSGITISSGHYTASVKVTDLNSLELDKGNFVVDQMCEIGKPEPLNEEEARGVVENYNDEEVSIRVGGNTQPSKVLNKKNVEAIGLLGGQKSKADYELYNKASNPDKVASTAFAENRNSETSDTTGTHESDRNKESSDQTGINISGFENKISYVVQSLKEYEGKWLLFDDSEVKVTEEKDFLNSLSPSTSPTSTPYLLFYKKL

Target: Ubiquitin carboxyl-terminal hydrolase 1 (Homo sapiens) (UniProt O94782)
Assay: Inhibitors of USP1/UAF1: SAR in Primary Assay
Summary of the method: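 1 nM USP1/UAF1 complex preincubated with compound 15 min at room temperature, then 150 nM (final) Ub-Rho substrate added. Fluorescence (ex 480/em 540) read kinetically. Buffer: 50 mM HEPES pH 7.8, 0.5 mM EDTA, 0.1 mg/ml BSA, 1 mM TCEP, 0.01% Tween-20.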

Structure (SMILES)	Potency
O=[N+]([O-])c1ccccc1-c1nc(NCc2ccc(-c3cccnc3)cc2)c2ccccc2n1	active: 4.29 µM
O=S(=O)(Nc1nc(-c2ccccc2C(F)(F)F)nc2ccccc12)c1ccc(-c2cccnc2)cc1	inconclusive: 12.1 µM [inhibitor, partial curve]
FC(F)(F)c1cccc(-c2nc(NCc3ccc(-c4cccnc4)cc3)c3ccccc3n2)c1	inconclusive: 27.1 µM [inhibitor, partial curve]
FC(F)(F)c1cc(-c2ccc(CNc3nc(C4CCCC4)nc4ccccc34)cc2)ccn1	inconclusive: 19.2 µM [inhibitor, partial curve, poor fit]
Cc1cnc(-c2ccccc2C2COC2)nc1NCc1ccc(-c2cccnc2)cc1	inconclusive: 34.1 µM [inhibitor, partial curve, poor fit] and inconclusive: 21.5 µM [inhibitor, partial curve]
